Measurements reported in the supplement of paper PMC12889115.
The list shows a part of the results. Values are raw readings; no control value is given beside them.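 In the initial screen, polymyxin B was used at a concentration that permeabilizes Salmonella's outer membrane but not its inner membrane. Maximum growth was set by DMSO wells with or without polymyxin B. Since plates varied, data were ranked per plate, and compounds giving the lowest OD600 advanced as hits.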

Test system: Salmonella enterica serovar Typhimurium SL1344
Assay: bacterial growth OD600 after 18 h with compound and polymyxin B; higher = more bacterial growth (less inhibition)
Conditions: 50 µM, Mueller-Hinton broth

| SMILES | bacterial growth OD600 (polymyxin B 1 µg/mL) | bacterial growth OD600 (polymyxin B 0.75 µg/mL) |
| --- | --- | --- |
| Cc1cccc(CN2CCCC3(CCN(S(=O)(=O)N(C)C)C3)C2=O)c1 (centres undefined) | 0.845 |  |
| Cc1cc(N2CCN(C(=O)c3ccc4oc(C(C)C)nc4c3)CC2)cc(C)n1 |  | 0.821 |
| Cc1c[nH]c(C(=O)N2C[C@H]3OC(=O)N(CCCc4ccc(F)cc4)[C@H]3C2)n1 |  | 0.885 |
| COC(=O)CCC(=O)N1CCC(C(=O)Nc2ccc(-c3cccc(C)c3)cc2)CC1 | 0.351 |  |
| COC(=O)CCCC(=O)N1CCCC(CNS(=O)(=O)c2ccc(OC)cc2)C1 (centres undefined) | 0.861 |  |
| Cc1cc(C)nc(CCNC(=O)C2CCC(=O)N(CCc3ccccn3)C2)n1 (centres undefined) | 1.14 |  |
| NC(=O)CCNC(=O)CC(c1ccccc1)c1ccc2c(c1)OCO2 (centres undefined) |  | 0.801 |
| O=C(Nc1cccc(-c2cc3ccccc3[nH]2)c1)C1CCN(C(=O)C2CCCO2)CC1 (centres undefined) | 0.846 |  |
| O=C1CCC(C(=O)N2CCCC(CCc3cccc(F)c3)C2)=NN1 (centres undefined) |  | 0.812 |

Looked up by compound from the entries so far (2):

| SMILES | bacterial growth OD600 (polymyxin B 1 µg/mL) | bacterial growth OD600 (polymyxin B 0.75 µg/mL) |
| --- | --- | --- |
| Cc1cc(N2CCN(C(=O)c3ccc4oc(C(C)C)nc4c3)CC2)cc(C)n1 |  | 0.821 |
| O=C1CCC(C(=O)N2CCCC(CCc3cccc(F)c3)C2)=NN1 (centres undefined) |  | 0.812 |
